This is one part of the list. Hit calls seldom repeat between salt and free forms of one compound.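 Kinases, fused to nanoluciferase, were expressed in K562 cells; luminescence was measured every 4 h from 2 to 18 h as percent of control (DMSO = 100%, positive control = 0%). A time point is decreased if signal falls significantly (2 sigma). Hits were called by the authors by a rule that is not shown; the count of time points alone does not decide it.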
How the values were obtained:
Assay in all cases: kinase-Nluc reporter destabilization hit call (1 = scored as downregulated) (binary); higher = compound decreases kinase abundance
Conditions in all cases: K562; 2-18 h
MAPK1 = MAPK1 (UniProt P28482)
MAPK4 = MAPK4 (UniProt P31152)
MAPKAPK2 = MAPKAPK2 (UniProt P49137)
MKNK1 = MKNK1 (UniProt Q9BUB5)
NTRK2 = NTRK2 (UniProt Q16620)
NTRK3 = NTRK3 (UniProt Q16288)
PAK4 = PAK4 (UniProt O96013)
PBK = PBK (UniProt Q96KB5)
PDGFRB = PDGFRB (UniProt P09619)
PDK1 = PDK1 (UniProt Q15118)
PDPK1 = PDPK1 (UniProt O15530)
PIK4CA = PIK4CA (UniProt P42356)
PIK4CB = PIK4CB (UniProt Q9UBF8)
PLK1 = PLK1 (UniProt P53350)
PRKAA1 = PRKAA1 (UniProt Q13131)
PRKCA = PRKCA (UniProt P17252)
PTK2 = PTK2 (UniProt Q05397)
PTK2B = PTK2B (UniProt Q14289)
RAF1 = RAF1 (UniProt P04049)
[1] = target: RAF1_S257L (clone: RAF1_mut) (UniProt P04049)

Chains of the proteins cited; added tags and fusions are not shown. Lines headed by an entry give the natural chain unless they say otherwise; changes in a name come on top.
UniProt P28482, whole entry: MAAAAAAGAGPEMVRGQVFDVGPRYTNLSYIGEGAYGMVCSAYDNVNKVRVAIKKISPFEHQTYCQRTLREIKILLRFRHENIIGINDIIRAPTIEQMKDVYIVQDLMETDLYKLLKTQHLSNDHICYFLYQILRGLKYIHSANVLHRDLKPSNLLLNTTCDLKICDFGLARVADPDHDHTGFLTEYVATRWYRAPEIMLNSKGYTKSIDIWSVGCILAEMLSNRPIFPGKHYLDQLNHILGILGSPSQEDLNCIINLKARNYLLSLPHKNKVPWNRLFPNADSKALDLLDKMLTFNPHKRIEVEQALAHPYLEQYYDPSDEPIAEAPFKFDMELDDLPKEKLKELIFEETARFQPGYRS
UniProt P31152, whole entry: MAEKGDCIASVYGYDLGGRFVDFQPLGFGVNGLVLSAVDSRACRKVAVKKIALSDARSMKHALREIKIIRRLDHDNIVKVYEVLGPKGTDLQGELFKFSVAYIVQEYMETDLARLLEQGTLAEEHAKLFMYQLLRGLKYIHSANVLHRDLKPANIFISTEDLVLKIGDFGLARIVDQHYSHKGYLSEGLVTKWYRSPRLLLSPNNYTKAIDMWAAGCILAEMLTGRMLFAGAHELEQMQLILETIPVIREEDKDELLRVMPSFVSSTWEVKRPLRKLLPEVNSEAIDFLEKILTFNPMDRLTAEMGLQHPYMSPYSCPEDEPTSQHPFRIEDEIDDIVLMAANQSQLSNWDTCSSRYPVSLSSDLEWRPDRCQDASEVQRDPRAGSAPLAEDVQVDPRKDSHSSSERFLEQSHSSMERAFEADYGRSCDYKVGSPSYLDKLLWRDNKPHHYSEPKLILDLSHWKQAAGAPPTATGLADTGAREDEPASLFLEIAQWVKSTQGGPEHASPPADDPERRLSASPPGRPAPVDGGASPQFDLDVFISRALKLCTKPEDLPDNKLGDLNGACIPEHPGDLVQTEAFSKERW
UniProt P49137, whole entry, looked up: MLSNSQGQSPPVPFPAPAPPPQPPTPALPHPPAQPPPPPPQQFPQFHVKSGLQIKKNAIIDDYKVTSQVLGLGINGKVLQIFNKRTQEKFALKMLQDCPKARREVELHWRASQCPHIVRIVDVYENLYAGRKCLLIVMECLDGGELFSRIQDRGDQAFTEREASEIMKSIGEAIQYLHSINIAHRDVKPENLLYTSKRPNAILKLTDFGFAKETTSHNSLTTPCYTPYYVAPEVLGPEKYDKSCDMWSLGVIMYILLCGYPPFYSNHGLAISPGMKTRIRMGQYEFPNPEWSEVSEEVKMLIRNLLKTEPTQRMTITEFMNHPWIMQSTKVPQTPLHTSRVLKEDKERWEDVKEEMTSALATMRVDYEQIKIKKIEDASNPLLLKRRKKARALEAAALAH
UniProt Q16620, whole entry, looked up: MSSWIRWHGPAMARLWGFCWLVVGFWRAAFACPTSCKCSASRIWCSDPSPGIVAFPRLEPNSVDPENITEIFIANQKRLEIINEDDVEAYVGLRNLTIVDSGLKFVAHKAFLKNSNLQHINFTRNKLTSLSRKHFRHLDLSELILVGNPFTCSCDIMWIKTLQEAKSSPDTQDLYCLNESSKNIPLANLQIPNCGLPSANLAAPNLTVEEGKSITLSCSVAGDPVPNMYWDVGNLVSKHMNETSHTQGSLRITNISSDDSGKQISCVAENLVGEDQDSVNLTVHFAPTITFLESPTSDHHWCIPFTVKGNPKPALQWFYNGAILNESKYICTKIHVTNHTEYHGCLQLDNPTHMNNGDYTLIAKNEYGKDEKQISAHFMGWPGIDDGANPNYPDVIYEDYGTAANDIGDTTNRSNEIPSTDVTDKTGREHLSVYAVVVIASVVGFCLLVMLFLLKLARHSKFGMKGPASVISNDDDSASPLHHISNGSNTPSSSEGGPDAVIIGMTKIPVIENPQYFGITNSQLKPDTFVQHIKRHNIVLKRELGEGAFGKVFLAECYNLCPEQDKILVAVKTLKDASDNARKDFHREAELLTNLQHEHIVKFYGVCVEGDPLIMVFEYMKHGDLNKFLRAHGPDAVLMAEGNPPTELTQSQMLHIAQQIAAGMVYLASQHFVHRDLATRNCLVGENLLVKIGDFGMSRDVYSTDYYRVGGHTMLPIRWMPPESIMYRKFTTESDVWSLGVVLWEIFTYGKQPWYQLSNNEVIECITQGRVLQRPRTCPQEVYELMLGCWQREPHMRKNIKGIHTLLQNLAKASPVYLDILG
UniProt Q16288, whole entry, looked up: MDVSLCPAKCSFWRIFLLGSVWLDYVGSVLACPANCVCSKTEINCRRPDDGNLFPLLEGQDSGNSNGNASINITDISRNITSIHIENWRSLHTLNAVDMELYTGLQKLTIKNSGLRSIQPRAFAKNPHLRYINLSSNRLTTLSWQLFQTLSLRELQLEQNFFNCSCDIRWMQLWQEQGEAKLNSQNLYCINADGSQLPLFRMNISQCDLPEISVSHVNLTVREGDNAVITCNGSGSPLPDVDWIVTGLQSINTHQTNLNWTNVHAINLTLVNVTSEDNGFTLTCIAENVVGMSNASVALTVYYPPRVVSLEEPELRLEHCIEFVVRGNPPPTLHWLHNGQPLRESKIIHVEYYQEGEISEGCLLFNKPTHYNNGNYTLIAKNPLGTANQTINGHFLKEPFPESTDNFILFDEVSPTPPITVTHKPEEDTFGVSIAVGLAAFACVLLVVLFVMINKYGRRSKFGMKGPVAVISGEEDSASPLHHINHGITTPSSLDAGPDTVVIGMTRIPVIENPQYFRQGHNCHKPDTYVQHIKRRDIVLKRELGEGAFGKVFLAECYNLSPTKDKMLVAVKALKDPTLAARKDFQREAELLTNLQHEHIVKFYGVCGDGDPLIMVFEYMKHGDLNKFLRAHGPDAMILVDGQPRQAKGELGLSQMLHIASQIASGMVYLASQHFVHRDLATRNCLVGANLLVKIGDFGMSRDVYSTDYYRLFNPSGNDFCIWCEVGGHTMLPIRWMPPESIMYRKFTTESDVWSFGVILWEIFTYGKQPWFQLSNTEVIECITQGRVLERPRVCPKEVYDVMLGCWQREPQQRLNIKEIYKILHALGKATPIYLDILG
UniProt Q96KB5: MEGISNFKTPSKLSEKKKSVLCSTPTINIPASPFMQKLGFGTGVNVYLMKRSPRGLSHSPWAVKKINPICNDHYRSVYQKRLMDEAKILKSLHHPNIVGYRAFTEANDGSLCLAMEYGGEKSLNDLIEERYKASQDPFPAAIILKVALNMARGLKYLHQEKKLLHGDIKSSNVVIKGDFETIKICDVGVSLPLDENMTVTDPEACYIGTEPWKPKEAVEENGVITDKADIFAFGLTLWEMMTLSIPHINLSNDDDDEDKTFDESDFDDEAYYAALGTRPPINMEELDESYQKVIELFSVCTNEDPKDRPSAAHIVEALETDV
UniProt Q15118, whole entry, looked up: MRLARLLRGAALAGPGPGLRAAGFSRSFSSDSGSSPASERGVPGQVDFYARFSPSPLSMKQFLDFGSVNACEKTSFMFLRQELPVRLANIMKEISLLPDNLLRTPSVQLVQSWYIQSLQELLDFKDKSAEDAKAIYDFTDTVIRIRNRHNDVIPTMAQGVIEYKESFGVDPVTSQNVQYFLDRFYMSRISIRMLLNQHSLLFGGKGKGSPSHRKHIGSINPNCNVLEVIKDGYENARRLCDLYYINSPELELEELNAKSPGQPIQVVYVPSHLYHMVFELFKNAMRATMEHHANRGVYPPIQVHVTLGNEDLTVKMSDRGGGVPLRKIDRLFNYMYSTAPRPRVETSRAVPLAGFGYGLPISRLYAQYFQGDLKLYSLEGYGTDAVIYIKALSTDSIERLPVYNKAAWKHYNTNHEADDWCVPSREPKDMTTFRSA
UniProt O15530: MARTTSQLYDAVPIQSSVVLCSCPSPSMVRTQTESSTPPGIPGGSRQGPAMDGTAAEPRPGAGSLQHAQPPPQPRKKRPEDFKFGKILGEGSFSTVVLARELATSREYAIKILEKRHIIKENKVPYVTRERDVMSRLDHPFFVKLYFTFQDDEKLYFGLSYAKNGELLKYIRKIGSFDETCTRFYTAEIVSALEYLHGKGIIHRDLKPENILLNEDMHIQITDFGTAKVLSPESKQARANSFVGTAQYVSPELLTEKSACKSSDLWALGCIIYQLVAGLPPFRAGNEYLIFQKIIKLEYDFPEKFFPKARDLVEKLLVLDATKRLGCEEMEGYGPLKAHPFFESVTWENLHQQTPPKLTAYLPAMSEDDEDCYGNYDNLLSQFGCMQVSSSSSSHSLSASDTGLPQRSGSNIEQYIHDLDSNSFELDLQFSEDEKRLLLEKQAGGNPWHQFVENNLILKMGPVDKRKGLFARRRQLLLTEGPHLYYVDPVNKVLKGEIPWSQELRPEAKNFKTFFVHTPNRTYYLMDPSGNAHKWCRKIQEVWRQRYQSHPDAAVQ
UniProt Q13131: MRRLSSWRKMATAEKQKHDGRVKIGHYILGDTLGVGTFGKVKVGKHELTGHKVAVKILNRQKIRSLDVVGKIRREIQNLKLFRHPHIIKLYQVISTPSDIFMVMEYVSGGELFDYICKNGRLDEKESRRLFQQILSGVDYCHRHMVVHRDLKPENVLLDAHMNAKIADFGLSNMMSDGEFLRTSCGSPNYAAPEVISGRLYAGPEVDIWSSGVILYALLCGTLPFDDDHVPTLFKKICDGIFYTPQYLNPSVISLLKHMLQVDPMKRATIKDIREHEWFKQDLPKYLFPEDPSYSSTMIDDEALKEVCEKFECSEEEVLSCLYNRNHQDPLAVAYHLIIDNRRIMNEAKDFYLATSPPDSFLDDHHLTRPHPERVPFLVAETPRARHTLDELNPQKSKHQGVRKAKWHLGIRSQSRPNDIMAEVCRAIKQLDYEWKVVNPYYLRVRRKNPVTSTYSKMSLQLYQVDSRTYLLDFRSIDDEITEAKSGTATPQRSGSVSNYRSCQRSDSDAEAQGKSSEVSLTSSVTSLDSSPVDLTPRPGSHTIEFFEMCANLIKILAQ
UniProt Q14289, whole entry, looked up: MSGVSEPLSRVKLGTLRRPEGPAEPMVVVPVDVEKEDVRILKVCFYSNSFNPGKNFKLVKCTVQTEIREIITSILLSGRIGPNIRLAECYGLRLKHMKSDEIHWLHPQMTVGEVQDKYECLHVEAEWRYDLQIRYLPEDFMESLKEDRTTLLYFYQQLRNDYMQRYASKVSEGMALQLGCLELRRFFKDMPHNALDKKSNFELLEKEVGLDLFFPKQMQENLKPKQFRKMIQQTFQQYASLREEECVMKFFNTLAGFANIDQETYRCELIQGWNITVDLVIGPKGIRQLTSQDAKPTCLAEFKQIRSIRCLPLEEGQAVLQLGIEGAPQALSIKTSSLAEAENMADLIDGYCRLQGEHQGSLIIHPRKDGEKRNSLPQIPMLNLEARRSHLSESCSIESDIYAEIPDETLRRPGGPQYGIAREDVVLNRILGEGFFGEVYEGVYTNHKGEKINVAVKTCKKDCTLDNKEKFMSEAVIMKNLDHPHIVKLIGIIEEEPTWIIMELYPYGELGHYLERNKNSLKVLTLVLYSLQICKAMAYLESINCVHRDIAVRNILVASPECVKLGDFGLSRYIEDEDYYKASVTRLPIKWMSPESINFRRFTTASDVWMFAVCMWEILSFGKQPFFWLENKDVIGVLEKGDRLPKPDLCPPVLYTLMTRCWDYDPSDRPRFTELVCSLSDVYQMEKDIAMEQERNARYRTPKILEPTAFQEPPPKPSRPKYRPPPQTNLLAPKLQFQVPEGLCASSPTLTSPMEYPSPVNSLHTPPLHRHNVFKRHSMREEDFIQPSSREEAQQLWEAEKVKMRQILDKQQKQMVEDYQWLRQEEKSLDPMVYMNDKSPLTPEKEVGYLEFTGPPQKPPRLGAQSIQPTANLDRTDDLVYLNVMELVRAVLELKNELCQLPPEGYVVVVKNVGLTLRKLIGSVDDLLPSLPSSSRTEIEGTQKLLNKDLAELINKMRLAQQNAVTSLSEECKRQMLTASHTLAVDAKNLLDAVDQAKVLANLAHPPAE

Measured: kinase-Nluc reporter destabilization hit call

Cc1ccc(C(=O)NC2CC2)cc1-n1ncc(C(=O)c2cccc(C#N)c2)c1N [Acumapimod] (10 µM)
inactive: MAPK1 = 0 | MAPK4 = 0 | MAPKAPK2 = 0 | MKNK1 = 0 | NTRK2 = 0 | NTRK3 = 0 | PAK4 = 0 | PBK 0 | PDGFRB 0 | PDK1 = 0 | PDPK1 = 0 | PIK4CA 0 | PIK4CB 0 | PLK1 = 0 | PRKAA1 = 0 | PRKCA 0 | PTK2 = 0 | PTK2B 0 | RAF1 = 0 | [1] 0

COc1cc2c(cc1Nc1ncc(C(N)=O)c(Nc3c(F)cccc3C(F)(F)F)n1)CN(C)CC2 (2.5 µM)
inactive: MAPK1 = 0 | MAPK4 = 0 | MAPKAPK2 = 0 | MKNK1 = 0 | NTRK2 = 0 | NTRK3 = 0 | PAK4 = 0 | PBK 0 | PDGFRB 0 | PDK1 = 0 | PDPK1 = 0 | PIK4CA 0 | PIK4CB 0 | PLK1 = 0 | PRKAA1 = 0 | PRKCA 0 | PTK2 = 0 | PTK2B 0 | RAF1 = 0 | [1] 0

CCc1c[nH]c2ncnc(N3CC[C@](N)(CNC(=O)c4ccc(F)cc4F)C3)c12 (10 µM)
inactive: MAPK1 = 0 | MAPK4 = 0 | MAPKAPK2 = 0 | MKNK1 = 0 | NTRK2 = 0 | NTRK3 = 0 | PAK4 = 0 | PBK 0 | PDGFRB 0 | PDK1 = 0 | PDPK1 = 0 | PIK4CA 0 | PIK4CB 0 | PLK1 = 0 | PRKAA1 = 0 | PRKCA 0 | PTK2 = 0 | PTK2B 0 | RAF1 = 0 | [1] 0

Cc1cc(O)c2c(c1)C(=O)c1cccc(O)c1C2=O [Chrysophanol] (2 µM)
inactive: MAPK1 = 0 | MAPK4 = 0 | MAPKAPK2 = 0 | MKNK1 = 0 | NTRK2 = 0 | NTRK3 = 0 | PAK4 = 0 | PBK 0 | PDGFRB 0 | PDK1 = 0 | PDPK1 = 0 | PIK4CA 0 | PIK4CB 0 | PLK1 = 0 | PRKAA1 = 0 | PRKCA 0 | PTK2 = 0 | PTK2B 0 | RAF1 = 0 | [1] 0

N#Cc1ccc(-c2cnc3ccc(-c4ccc(C(=O)N5CCOCC5)cc4)cn23)cc1 (10 µM)
inactive: MAPK1 = 0 | MAPK4 = 0 | MAPKAPK2 = 0 | MKNK1 = 0 | NTRK2 = 0 | NTRK3 = 0 | PAK4 = 0 | PBK 0 | PDGFRB 0 | PDK1 = 0 | PDPK1 = 0 | PIK4CA 0 | PIK4CB 0 | PLK1 = 0 | PRKAA1 = 0 | PRKCA 0 | PTK2 = 0 | PTK2B 0 | RAF1 = 0 | [1] 0

COc1ccc2c3n(c(=NC(=O)c4cccnc4)nc2c1OC)CCN3 (2 µM)
inactive: MAPK1 = 0 | MAPK4 = 0 | MAPKAPK2 = 0 | MKNK1 = 0 | NTRK2 = 0 | NTRK3 = 0 | PAK4 = 0 | PBK 0 | PDGFRB 0 | PDK1 = 0 | PDPK1 = 0 | PIK4CA 0 | PIK4CB 0 | PLK1 = 0 | PRKAA1 = 0 | PRKCA 0 | PTK2 = 0 | PTK2B 0 | RAF1 = 0 | [1] 0

Nc1nccc(-c2c(-c3ccc(F)cc3)ncn2C2CCCCC2)n1 (10 µM)
inactive: MAPK1 = 0 | MAPK4 = 0 | MAPKAPK2 = 0 | MKNK1 = 0 | NTRK2 = 0 | NTRK3 = 0 | PAK4 = 0 | PBK 0 | PDGFRB 0 | PDK1 = 0 | PDPK1 = 0 | PIK4CA 0 | PIK4CB 0 | PLK1 = 0 | PRKAA1 = 0 | PRKCA 0 | PTK2 = 0 | PTK2B 0 | RAF1 = 0 | [1] 0

Cc1cc(C(=O)Nc2nc3cccc(Cl)c3n2[C@@H]2CCCCN(C(=O)/C=C/CN(C)C)C2)ccn1 [Nazartinib] (10 µM)
inactive: MAPK1 = 0 | MAPK4 = 0 | MAPKAPK2 = 0 | MKNK1 = 0 | NTRK2 = 0 | NTRK3 = 0 | PAK4 = 0 | PBK 0 | PDGFRB 0 | PDK1 = 0 | PDPK1 = 0 | PIK4CA 0 | PIK4CB 0 | PLK1 = 0 | PRKAA1 = 0 | PRKCA 0 | PTK2 = 0 | PTK2B 0 | RAF1 = 0 | [1] 0

N[C@@H]1CCCN(c2c(/C=C3\SC(=O)NC3=O)cccc2-c2ccccc2)C1 (10 µM)
inactive: MAPK1 = 0 | MAPK4 = 0 | MAPKAPK2 = 0 | MKNK1 = 0 | NTRK2 = 0 | NTRK3 = 0 | PAK4 = 0 | PBK 0 | PDGFRB 0 | PDK1 = 0 | PDPK1 = 0 | PIK4CA 0 | PIK4CB 0 | PLK1 = 0 | PRKAA1 = 0 | PRKCA 0 | PTK2 = 0 | PTK2B 0 | RAF1 = 0 | [1] 0

O=c1[nH]ccc2nc(-c3ccc(CN4CCC(c5nc(-c6ccccn6)n[nH]5)CC4)cc3)c(-c3ccccc3)cc12 (10 µM)
inactive: MAPK1 = 0 | MAPK4 = 0 | MAPKAPK2 = 0 | MKNK1 = 0 | NTRK2 = 0 | NTRK3 = 0 | PAK4 = 0 | PBK 0 | PDGFRB 0 | PDK1 = 0 | PDPK1 = 0 | PIK4CA 0 | PIK4CB 0 | PLK1 = 0 | PRKAA1 = 0 | PRKCA 0 | PTK2 = 0 | PTK2B 0 | RAF1 = 0 | [1] 0

Cc1nn(C)cc1-c1nc2c(N3CCN(Cc4ccc(Cl)cc4)CC3)c(Cl)cnc2[nH]1 (10 µM)
inactive: MAPK1 = 0 | MAPK4 = 0 | MAPKAPK2 = 0 | MKNK1 = 0 | NTRK2 = 0 | NTRK3 = 0 | PAK4 = 0 | PBK 0 | PDGFRB 0 | PDK1 = 0 | PDPK1 = 0 | PIK4CA 0 | PIK4CB 0 | PLK1 = 0 | PRKAA1 = 0 | PRKCA 0 | PTK2 = 0 | PTK2B 0 | RAF1 = 0 | [1] 0

CN(C)c1ccc(-c2nc3ncc(Cl)c(N4CCN(CC(=O)Nc5nccs5)CC4)c3[nH]2)cc1 (2 µM)
inactive: MAPK1 = 0 | MAPK4 = 0 | MAPKAPK2 = 0 | MKNK1 = 0 | NTRK2 = 0 | NTRK3 = 0 | PAK4 = 0 | PBK 0 | PDGFRB 0 | PDK1 = 0 | PDPK1 = 0 | PIK4CA 0 | PIK4CB 0 | PLK1 = 0 | PRKAA1 = 0 | PRKCA 0 | PTK2 = 0 | PTK2B 0 | RAF1 = 0 | [1] 0

O=C(NCCN1CCOCC1)Nc1nc2ccc(Sc3nnc4ccc(-c5ccc(F)cc5)nn34)cc2s1 (10 µM)
inactive: MAPK1 = 0 | MAPK4 = 0 | MAPKAPK2 = 0 | MKNK1 = 0 | NTRK2 = 0 | NTRK3 = 0 | PAK4 = 0 | PBK 0 | PDGFRB 0 | PDK1 = 0 | PDPK1 = 0 | PIK4CA 0 | PIK4CB 0 | PLK1 = 0 | PRKAA1 = 0 | PRKCA 0 | PTK2 = 0 | PTK2B 0 | RAF1 = 0 | [1] 0

COc1cc2c(cc1OC)/C(=C/c1ccc(O)cc1)C(=O)N2 (10 µM)
inactive: MAPK1 = 0 | MAPK4 = 0 | MAPKAPK2 = 0 | MKNK1 = 0 | NTRK2 = 0 | NTRK3 = 0 | PAK4 = 0 | PBK 0 | PDGFRB 0 | PDK1 = 0 | PDPK1 = 0 | PIK4CA 0 | PIK4CB 0 | PLK1 = 0 | PRKAA1 = 0 | PRKCA 0 | PTK2 = 0 | PTK2B 0 | RAF1 = 0 | [1] 0

COc1cc(N2CCC(N3CCN(C)CC3)CC2)ccc1Nc1ncc(Cl)c(-c2c[nH]c3ccccc23)n1 (2.5 µM)
inactive: MAPK1 = 0 | MAPK4 = 0 | MAPKAPK2 = 0 | MKNK1 = 0 | NTRK2 = 0 | NTRK3 = 0 | PAK4 = 0 | PBK 0 | PDGFRB 0 | PDK1 = 0 | PDPK1 = 0 | PIK4CA 0 | PIK4CB 0 | PLK1 = 0 | PRKAA1 = 0 | PRKCA 0 | PTK2 = 0 | PTK2B 0 | RAF1 = 0 | [1] 0

CN1CCC(CNc2ccc3ncc(-c4cccc(OC(F)(F)F)c4)n3n2)CC1 (2.5 µM)
inactive: MAPK1 = 0 | MAPK4 = 0 | MAPKAPK2 = 0 | MKNK1 = 0 | NTRK2 = 0 | NTRK3 = 0 | PAK4 = 0 | PBK 0 | PDGFRB 0 | PDK1 = 0 | PDPK1 = 0 | PIK4CA 0 | PIK4CB 0 | PLK1 = 0 | PRKAA1 = 0 | PRKCA 0 | PTK2 = 0 | PTK2B 0 | RAF1 = 0 | [1] 0

Cc1cc(-n2c(=O)ccc3c[nH]c4nccc-4c32)ccc1F (10 µM)
inactive: MAPK1 = 0 | MAPK4 = 0 | MAPKAPK2 = 0 | MKNK1 = 0 | NTRK2 = 0 | NTRK3 = 0 | PAK4 = 0 | PBK 0 | PDGFRB 0 | PDK1 = 0 | PDPK1 = 0 | PIK4CA 0 | PIK4CB 0 | PLK1 = 0 | PRKAA1 = 0 | PRKCA 0 | PTK2 = 0 | PTK2B 0 | RAF1 = 0 | [1] 0
